The values below come from PMC10709431.

Chains of the proteins cited; added tags and fusions are not shown. Residues count along the entry.
UniProt Q13131: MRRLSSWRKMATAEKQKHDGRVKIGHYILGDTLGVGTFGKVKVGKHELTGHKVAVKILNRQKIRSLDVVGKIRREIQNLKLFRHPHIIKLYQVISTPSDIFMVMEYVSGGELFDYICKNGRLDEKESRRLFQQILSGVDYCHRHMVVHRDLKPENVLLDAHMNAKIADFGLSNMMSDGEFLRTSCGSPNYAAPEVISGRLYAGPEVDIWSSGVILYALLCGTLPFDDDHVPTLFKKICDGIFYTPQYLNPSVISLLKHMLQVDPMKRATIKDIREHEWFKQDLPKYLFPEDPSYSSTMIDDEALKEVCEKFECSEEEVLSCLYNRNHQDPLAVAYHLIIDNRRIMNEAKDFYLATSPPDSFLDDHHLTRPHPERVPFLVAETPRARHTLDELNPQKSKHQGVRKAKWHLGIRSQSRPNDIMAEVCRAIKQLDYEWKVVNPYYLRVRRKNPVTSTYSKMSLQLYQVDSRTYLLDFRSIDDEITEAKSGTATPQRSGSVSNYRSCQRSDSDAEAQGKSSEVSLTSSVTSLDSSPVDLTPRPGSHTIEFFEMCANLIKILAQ
UniProt Q9UGJ0: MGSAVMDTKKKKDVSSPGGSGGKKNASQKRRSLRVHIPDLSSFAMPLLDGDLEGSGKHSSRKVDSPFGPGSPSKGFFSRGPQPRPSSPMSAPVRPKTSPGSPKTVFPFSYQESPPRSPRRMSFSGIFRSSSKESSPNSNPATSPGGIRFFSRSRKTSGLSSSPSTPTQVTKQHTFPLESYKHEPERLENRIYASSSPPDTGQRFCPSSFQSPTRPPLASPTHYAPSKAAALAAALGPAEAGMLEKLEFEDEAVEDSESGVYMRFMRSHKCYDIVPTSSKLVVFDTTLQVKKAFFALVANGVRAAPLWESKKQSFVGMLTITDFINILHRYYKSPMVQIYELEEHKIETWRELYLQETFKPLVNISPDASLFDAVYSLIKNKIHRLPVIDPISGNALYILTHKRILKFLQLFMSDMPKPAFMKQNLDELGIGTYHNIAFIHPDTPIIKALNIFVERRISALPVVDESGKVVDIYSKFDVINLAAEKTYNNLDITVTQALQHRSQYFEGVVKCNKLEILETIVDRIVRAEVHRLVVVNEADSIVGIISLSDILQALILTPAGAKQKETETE
UniProt Q9UJ70: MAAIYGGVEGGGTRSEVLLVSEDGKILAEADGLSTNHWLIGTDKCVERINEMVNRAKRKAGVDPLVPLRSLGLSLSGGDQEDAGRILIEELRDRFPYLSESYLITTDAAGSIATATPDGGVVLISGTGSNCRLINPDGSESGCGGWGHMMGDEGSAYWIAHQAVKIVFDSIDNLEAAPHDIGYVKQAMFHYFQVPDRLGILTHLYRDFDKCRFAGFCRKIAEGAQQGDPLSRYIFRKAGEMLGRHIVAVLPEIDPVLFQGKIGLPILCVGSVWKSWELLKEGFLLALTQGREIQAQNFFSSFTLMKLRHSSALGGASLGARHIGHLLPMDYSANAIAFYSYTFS
UniProt Q13547: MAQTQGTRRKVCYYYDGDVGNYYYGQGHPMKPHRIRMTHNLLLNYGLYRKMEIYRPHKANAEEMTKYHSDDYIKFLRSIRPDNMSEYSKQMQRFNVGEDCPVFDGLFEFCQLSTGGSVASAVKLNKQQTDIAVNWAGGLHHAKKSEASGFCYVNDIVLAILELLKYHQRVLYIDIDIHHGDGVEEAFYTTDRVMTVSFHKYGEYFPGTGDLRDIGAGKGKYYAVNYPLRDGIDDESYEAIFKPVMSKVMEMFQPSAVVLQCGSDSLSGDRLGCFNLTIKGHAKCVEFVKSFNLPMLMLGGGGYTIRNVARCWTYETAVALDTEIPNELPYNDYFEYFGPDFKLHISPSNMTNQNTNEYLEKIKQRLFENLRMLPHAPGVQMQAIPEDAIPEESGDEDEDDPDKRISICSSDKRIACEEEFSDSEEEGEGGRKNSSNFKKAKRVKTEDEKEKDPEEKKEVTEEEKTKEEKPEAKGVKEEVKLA
UniProt P27986: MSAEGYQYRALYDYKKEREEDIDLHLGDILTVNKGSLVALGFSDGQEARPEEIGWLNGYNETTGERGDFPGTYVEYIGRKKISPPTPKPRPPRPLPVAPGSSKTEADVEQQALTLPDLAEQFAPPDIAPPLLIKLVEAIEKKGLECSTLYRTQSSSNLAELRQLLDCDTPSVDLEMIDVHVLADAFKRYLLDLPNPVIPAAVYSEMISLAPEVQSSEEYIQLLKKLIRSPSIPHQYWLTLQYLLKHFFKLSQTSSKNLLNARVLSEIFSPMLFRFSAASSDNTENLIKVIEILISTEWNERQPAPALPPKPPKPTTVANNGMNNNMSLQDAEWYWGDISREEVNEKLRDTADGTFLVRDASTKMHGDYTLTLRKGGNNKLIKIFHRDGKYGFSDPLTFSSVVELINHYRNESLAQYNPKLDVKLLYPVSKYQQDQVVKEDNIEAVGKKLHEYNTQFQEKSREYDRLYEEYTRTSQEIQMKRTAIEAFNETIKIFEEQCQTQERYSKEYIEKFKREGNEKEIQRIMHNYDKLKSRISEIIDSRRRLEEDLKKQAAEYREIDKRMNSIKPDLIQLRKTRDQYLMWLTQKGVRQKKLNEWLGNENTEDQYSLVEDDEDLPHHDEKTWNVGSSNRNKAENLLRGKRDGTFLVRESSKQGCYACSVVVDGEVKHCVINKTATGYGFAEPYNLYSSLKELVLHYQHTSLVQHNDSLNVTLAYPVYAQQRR
UniProt P55854, residues 1-92: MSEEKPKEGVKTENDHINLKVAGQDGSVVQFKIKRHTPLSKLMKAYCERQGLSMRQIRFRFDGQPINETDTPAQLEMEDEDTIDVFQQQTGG
UniProt Q93009: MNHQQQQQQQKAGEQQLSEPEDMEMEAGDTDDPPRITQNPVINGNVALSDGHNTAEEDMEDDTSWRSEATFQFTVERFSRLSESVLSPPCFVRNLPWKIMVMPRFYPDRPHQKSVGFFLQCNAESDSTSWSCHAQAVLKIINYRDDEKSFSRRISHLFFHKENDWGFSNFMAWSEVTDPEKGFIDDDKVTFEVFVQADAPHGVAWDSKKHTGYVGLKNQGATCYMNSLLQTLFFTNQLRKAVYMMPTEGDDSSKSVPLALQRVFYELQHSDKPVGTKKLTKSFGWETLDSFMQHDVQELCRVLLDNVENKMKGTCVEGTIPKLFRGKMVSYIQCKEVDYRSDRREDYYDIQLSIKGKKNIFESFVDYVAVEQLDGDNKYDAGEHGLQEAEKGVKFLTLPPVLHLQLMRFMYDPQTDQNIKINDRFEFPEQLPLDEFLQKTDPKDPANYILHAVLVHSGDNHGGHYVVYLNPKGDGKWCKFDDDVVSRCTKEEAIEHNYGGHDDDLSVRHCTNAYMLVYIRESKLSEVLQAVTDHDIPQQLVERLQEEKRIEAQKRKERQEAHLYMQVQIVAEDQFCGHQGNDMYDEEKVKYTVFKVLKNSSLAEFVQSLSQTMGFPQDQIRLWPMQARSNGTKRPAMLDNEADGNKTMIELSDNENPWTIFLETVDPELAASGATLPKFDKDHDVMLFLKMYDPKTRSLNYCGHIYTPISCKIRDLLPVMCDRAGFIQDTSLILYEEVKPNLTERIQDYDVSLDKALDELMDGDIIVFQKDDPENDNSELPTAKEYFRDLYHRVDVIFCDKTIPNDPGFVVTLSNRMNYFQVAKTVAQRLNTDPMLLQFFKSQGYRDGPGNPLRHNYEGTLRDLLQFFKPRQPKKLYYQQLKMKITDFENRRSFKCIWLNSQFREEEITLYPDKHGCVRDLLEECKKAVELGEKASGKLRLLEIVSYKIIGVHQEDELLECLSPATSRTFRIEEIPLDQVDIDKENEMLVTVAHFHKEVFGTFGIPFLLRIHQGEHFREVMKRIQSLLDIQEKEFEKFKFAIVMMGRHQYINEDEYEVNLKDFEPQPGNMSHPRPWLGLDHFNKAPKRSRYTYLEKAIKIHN
UniProt Q06210: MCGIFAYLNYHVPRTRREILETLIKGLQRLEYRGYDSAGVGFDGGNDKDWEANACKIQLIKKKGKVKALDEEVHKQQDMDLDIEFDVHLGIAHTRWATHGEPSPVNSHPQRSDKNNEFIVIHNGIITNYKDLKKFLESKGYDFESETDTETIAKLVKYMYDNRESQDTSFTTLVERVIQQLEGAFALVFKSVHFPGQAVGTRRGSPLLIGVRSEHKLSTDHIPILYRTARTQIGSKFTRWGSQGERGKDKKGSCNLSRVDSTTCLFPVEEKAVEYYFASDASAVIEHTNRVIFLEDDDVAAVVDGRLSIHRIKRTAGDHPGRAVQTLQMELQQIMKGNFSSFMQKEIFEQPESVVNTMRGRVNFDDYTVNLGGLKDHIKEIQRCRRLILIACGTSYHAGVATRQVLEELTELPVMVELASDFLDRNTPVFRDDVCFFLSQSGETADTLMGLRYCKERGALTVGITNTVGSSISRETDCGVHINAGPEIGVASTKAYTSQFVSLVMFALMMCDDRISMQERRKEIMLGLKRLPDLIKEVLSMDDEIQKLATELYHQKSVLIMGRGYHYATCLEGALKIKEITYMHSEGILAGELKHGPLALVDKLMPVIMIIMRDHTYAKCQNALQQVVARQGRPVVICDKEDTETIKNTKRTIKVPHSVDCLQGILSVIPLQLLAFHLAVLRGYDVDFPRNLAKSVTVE

These are yes or no findings as the source states them, for the method shown. In cells and extracts the contact can be indirect. These calls come from enrichment with a bait or labelling near it, and not all partners need be listed. A no says only that the protein was not detected with the bait. Tags and fused reporters may be left off the sequences shown.

This assay has as its target AMPKα1 bait of the TurboID proximity labeling assay (UniProt Q13131). Kind of assay: proximity labelling; TurboID with AMPKα1; 100 μM biotin for 10 min at 37 °C, biotin-labeled proteins purified on streptavidin magnetic beads, western blot and mass spectrometry.

Turning to AMPKγ2 (from UniProt Q9UGJ0 1-569), the binding entry is on record as “binds”.
Turning to “GNK (N-acetyl-D-glucosamine kinase) (from UniProt Q9UJ70 1-344) (enzyme)”, the binding result is on record as “no binding”.
The same measure for HDAC1 (from UniProt Q13547 1-482): “binds”; for PIK3R1 (from UniProt P27986 1-724): “binds”.
Regarding SUMO3 (from UniProt P55854 1-92), the binding result is given as “binds”.
In the case of USP7 (from UniProt Q93009 1-1102), the binding entry is on record as “binds”.
For the molecule “glutamine fructose-6-phosphate aminotransferase 1 (GFAT1) (from UniProt Q06210 1-699) (enzyme)”, the binding result was “binds”.

B1: glucosamine-phosphate N-acetyltransferase 1 (GNPNAT1) (enzyme, UniProt Q96EK6 1-184)
chain: MKPDETPMFDPSLLKEVDWSQNTATFSPAISPTHPGEGLVLRPLCTADLNRGFFKVLGQLTETGVVSPEQFMKSFEHMKKSGDYYVTVVEDVTLGQIVATATLIIEHKFIHSCAKRGRVEDVVVSDECRGKQLGKLLLSTLTLLSKKLNCYKITLECLPQNVGFYKKFGYTVSEENYMCRRFLK
B1: the binding entry was “binds”.

B2: P73 (protein, UniProt O15350 1-636)
chain: MAQSTATSPDGGTTFEHLWSSLEPDSTYFDLPQSSRGNNEVVGGTDSSMDVFHLEGMTTSVMAQFNLLSSTMDQMSSRAASASPYTPEHAASVPTHSPYAQPSSTFDTMSPAPVIPSNTDYPGPHHFEVTFQQSSTAKSATWTYSPLLKKLYCQIAKTCPIQIKVSTPPPPGTAIRAMPVYKKAEHVTDVVKRCPNHELGRDFNEGQSAPASHLIRVEGNNLSQYVDDPVTGRQSVVVPYEPPQVGTEFTTILYNFMCNSSCVGGMNRRPILIIITLEMRDGQVLGRRSFEGRICACPGRDRKADEDHYREQQALNESSAKNGAASKRAFKQSPPAVPALGAGVKKRRHGDEDTYYLQVRGRENFEILMKLKESLELMELVPQPLVDSYRQQQQLLQRPSHLQPPSYGPVLSPMNKVHGGMNKLPSVNQLVGQPPPHSSAATPNLGPVGPGMLNNHGHAVPANGEMSSSHSAQSMVSGSHCTPPPPYHADPSLVSFLTGLGCPNCIEYFTSQGLQSIYHLQNLTIEDLGALKIPEQYRMTIWRGLQDLKQGHDYSTAQQLLRSSNAATISIGGSGELQRQRVMEAVHFRVRHTITIPNRGGPGGGPDEWADFGFDLPDCKARKQPIKEEFTEAEIH
Regarding B2, the binding result is given as “binds”.

B3: hexokinase (HK) (enzyme, UniProt P19367 1-917)
chain: MIAAQLLAYYFTELKDDQVKKIDKYLYAMRLSDETLIDIMTRFRKEMKNGLSRDFNPTATVKMLPTFVRSIPDGSEKGDFIALDLGGSSFRILRVQVNHEKNQNVHMESEVYDTPENIVHGSGSQLFDHVAECLGDFMEKRKIKDKKLPVGFTFSFPCQQSKIDEAILITWTKRFKASGVEGADVVKLLNKAIKKRGDYDANIVAVVNDTVGTMMTCGYDDQHCEVGLIIGTGTNACYMEELRHIDLVEGDEGRMCINTEWGAFGDDGSLEDIRTEFDREIDRGSLNPGKQLFEKMVSGMYLGELVRLILVKMAKEGLLFEGRITPELLTRGKFNTSDVSAIEKNKEGLHNAKEILTRLGVEPSDDDCVSVQHVCTIVSFRSANLVAATLGAILNRLRDNKGTPRLRTTVGVDGSLYKTHPQYSRRFHKTLRRLVPDSDVRFLLSESGSGKGAAMVTAVAYRLAEQHRQIEETLAHFHLTKDMLLEVKKRMRAEMELGLRKQTHNNAVVKMLPSFVRRTPDGTENGDFLALDLGGTNFRVLLVKIRSGKKRTVEMHNKIYAIPIEIMQGTGEELFDHIVSCISDFLDYMGIKGPRMPLGFTFSFPCQQTSLDAGILITWTKGFKATDCVGHDVVTLLRDAIKRREEFDLDVVAVVNDTVGTMMTCAYEEPTCEVGLIVGTGSNACYMEEMKNVEMVEGDQGQMCINMEWGAFGDNGCLDDIRTHYDRLVDEYSLNAGKQRYEKMISGMYLGEIVRNILIDFTKKGFLFRGQISETLKTRGIFETKFLSQIESDRLALLQVRAILQQLGLNSTCDDSILVKTVCGVVSRRAAQLCGAGMAAVVDKIRENRGLDRLNVTVGVDGTLYKLHPHFSRIMHQTVKELSPKCNVSFLLSEDGSGKGAALITAVGVRLRTEASS
As to B3, the binding entry was “no binding”.

B4: HOMER1 (protein, UniProt Q86YM7 1-354)
chain: MGEQPIFSTRAHVFQIDPNTKKNWVPTSKHAVTVSYFYDSTRNVYRIISLDGSKAIINSTITPNMTFTKTSQKFGQWADSRANTVYGLGFSSEHHLSKFAEKFQEFKEAARLAKEKSQEKMELTSTPSQESAGGDLQSPLTPESINGTDDERTPDVTQNSEPRAEPTQNALPFSHSSAISKHWEAELATLKGNNAKLTAALLESTANVKQWKQQLAAYQEEAERLHKRVTELECVSSQANAVHTHKTELNQTIQELEETLKLKEEEIERLKQEIDNARELQEQRDSLTQKLQEVEIRNKDLEGQLSDLEQRLEKSQNEQEAFRNNLKTLLEILDGKIFELTELRDNLAKLLECS
On to B4, for which the binding entry is reported as “binds”.

B5: CAB39 (protein, UniProt Q9Y376 1-341)
chain: MPFPFGKSHKSPADIVKNLKESMAVLEKQDISDKKAEKATEEVSKNLVAMKEILYGTNEKEPQTEAVAQLAQELYNSGLLSTLVADLQLIDFEGKKDVAQIFNNILRRQIGTRTPTVEYICTQQNILFMLLKGYESPEIALNCGIMLRECIRHEPLAKIILWSEQFYDFFRYVEMSTFDIASDAFATFKDLLTRHKLLSAEFLEQHYDRFFSEYEKLLHSENYVTKRQSLKLLGELLLDRHNFTIMTKYISKPENLKLMMNLLRDKSRNIQFEAFHVFKVFVANPNKTQPILDILLKNQAKLIEFLSKFQNDRTEDEQFNDEKTYLVKQIRDLKRPAQQEA
On to B5, for which the binding result is recorded as “binds”.
